{"source": "PubChem BioAssay AID493014", "about": "(National Center for Advancing Translational Sciences (NCATS), 2011)", "note": "The campaign covered roughly 340,000 compounds. About 170 (0.05%) were called active. Inconclusive means that the source gave no clear call. Such entries were picked first, then a sample of the others. Calls come from the whole dose curve; as a rule, active = well fitted inhibition curve with a large enough effect in the signal ratio, with a control signal flat (not every such curve was filed as active); inconclusive = small, poorly fitted or top-dose-only effect, or effect the other way, or a change in a side signal; inactive = flat fitted curve, though single readings scatter; the % refers to the signal ratio. A potency beside an inconclusive call is a rough fit, not a confirmed value. Potency is the fitted concentration of half-maximal effect.", "data": [{"assay": "qHTS Assay to Find Inhibitors of Chronic Active B-Cell Receptor Signaling;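 for activity change, negative = inhibition: plate controls were basal doxycycline-induced cells for no effect and cells given 10 µM MG132 for full effect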", "conditions": "ABC-DLBCL IkBa-CBG/CBR reporter, luminescence ratio (green luciferase fused to IkBa over red control in TMD8 lymphoma cells), 4 h; activity change, negative = inhibition: at 46.1 µM (top of the series) unless noted", "in_short": "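Concentration-response series (up to 46 uM) were applied to TMD8 dual-reporter cells for 4 h at 37C with doxycycline. Green/red ratio, after filter-overlap correction, defined %Activity; red signal alone was normalised to basal cells and zero luminescence.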", "values": [{"smiles": "CCOC(=S)SCC(=O)Nc1nc(C)c(C)s1", "activity change, negative = inhibition": "inconclusive: 17.3%"}, {"smiles": "Nc1ccc(S(=O)(=O)Nc2nc3ccccc3o2)cc1", "activity change, negative = inhibition": "inactive: 7.01%"}, {"smiles": "CCOC(=O)C1CCCN(c2c(N3CCC(N4CCCCC4)CC3)c(=O)c2=O)C1", "note": "(configuration not stated)", "activity change, negative = inhibition": "inactive: 24.6%"}, {"smiles": "Cc1ccc(NC(=O)CCC(=O)NNC(=O)Cc2ccccc2)cc1C", "activity change, negative = inhibition": "inconclusive: 23.8%"}, {"smiles": "Cc1cccc(NC(=O)Nc2cnccn2)c1", "activity change, negative = inhibition": "inconclusive: -13.4%"}, {"smiles": "Cc1cc(-c2n[nH]c(=S)n2/N=C/c2ccc(Cl)c([N+](=O)[O-])c2)n[nH]1", "activity change, negative = inhibition": "inactive: -8.12%"}, {"smiles": "CC(=O)COc1ccc2c(c1C)O/C(=C\\c1ccco1)C2=O", "activity change, negative = inhibition": "inconclusive: 0.607%"}, {"smiles": "Cc1nnc(Oc2ccccc2)c2ccccc12", "activity change, negative = inhibition": "inconclusive: -1.32%"}, {"smiles": "COCCN(CC(=O)Nc1cccc(C)c1C)C(=O)c1cc(S(=O)(=O)N2CCCC2)ccc1C", "activity change, negative = inhibition": "inconclusive: -1.62%"}, {"smiles": "COC(=O)c1cccc(NC(=O)CSc2nnc(COc3ccc(C#N)cc3)n2-c2ccccc2)c1", "Potency": "inconclusive: 32.6 µM [rising, partial curve, poor fit]"}, {"smiles": "COc1ccc(N(Cc2cc(=O)[nH]c3ccccc23)C(=O)CCl)cc1", "Potency": "inconclusive: 28.2 µM [falling, single point]"}, {"smiles": "Cc1c(C(=O)N2CCC(C)CC2)oc2ccc(S(=O)(=O)N3CCC4(CC3)OCCO4)cc12", "activity change, negative = inhibition": "inconclusive: 5.94%"}, {"smiles": "CCS(=O)(=O)c1ccc2oc(Nc3cc(C)cc(C)c3)nc2c1", "activity change, negative = inhibition": "inconclusive: -0.572%"}, {"smiles": "COc1cc(/C=C/C(=O)/C=C(O)/C=C/c2ccc(O)c(OC)c2)ccc1O", "Potency": "inconclusive: 20.6 µM [falling, single point]"}, {"smiles": "CS(=O)(=O)N1CCN(c2ccc([N+](=O)[O-])cc2C(F)(F)F)CC1", "activity change, negative = inhibition": "inconclusive: -32.4%"}, {"smiles": "COc1ccccc1NC(=O)C(C)N1CCN(C/C=C/c2ccccc2)CC1", "note": "(configuration not stated)", "activity change, negative = inhibition": "inconclusive: -16.3%"}, {"smiles": "Brc1ccc(-c2csc(N/N=C/c3cccnc3)n2)cc1", "activity change, negative = inhibition": "inconclusive: 1.87%"}, {"smiles": "O=C(CCC(=O)N1CCN(S(=O)(=O)c2ccccc2Cl)CC1)c1ccccc1", "activity change, negative = inhibition": "inconclusive: -0.942%"}, {"smiles": "Cc1cc(NC(=O)c2cccnc2)ccc1NC(=O)c1cc2ccccc2o1", "activity change, negative = inhibition": "inconclusive: -8.99%"}, {"smiles": "COc1ccc(C(=O)Nc2cnc3sc(C)nn3c2=O)cc1", "Potency": "inconclusive: 25.1 µM [falling, single point]"}, {"smiles": "Cc1ccc(NC(=O)Cn2c(=O)cnc3ccccc32)cc1S(=O)(=O)N1CCOCC1", "activity change, negative = inhibition": "inactive: -4.34%"}, {"smiles": "CCCC(=O)Nc1cccc(-c2nc3ccccc3o2)c1", "activity change, negative = inhibition": "inconclusive: 7.34%"}, {"smiles": "COC(=O)c1ccc2c(c1)c(C#Cc1ccccc1)c(-c1ccccc1)n2C", "activity change, negative = inhibition": "inconclusive: 10.5%"}, {"smiles": "O=C(NC(=S)Nc1ccc(Cc2ccncc2)cc1)c1ccccc1", "activity change, negative = inhibition": "inconclusive: -8.07%"}, {"smiles": "O=C(NCC1CCCO1)c1csc2c1CCCCC2", "note": "(configuration not stated)", "activity change, negative = inhibition": "inactive: 1.36%"}, {"smiles": "CC1(C)Oc2ccc(C(=O)N3CCc4ccccc43)cc2N(CC(=O)N2CCCC2)C1=O", "activity change, negative = inhibition": "inconclusive: 1.76%"}, {"smiles": "O=c1[nH]c(/C=C/c2ccccc2[N+](=O)[O-])nc2ccccc12", "Potency": "inconclusive: 4.61 µM [falling, partial curve, poor fit]"}, {"smiles": "COCCNC(=O)c1ccc2c3n(nc2c1)-c1ccc(Cl)cc1CO3", "Potency": "inconclusive: 22.4 µM [falling, single point]"}, {"smiles": "CCOC(=O)C1CCN(C(=O)CCn2c(=O)[nH]c3ccccc3c2=O)CC1", "activity change, negative = inhibition": "inconclusive: -0.79%"}, {"smiles": "COc1ccc(NC(=O)Nc2cccc3c2O[C@H](CN(C)C(=O)Nc2ccccc2)[C@@H](C)CN([C@H](C)CO)C3=O)cc1", "activity change, negative = inhibition": "inconclusive: 1.99%"}, {"smiles": "Cc1ccc(C(=O)N2CCN(Cc3ccc4c(c3)OCO4)CC2)cc1S(=O)(=O)N1CCOCC1", "activity change, negative = inhibition": "inconclusive: -4.37%"}, {"smiles": "O=C(Nc1ncnc2c1C(c1ccccc1)c1c(ccc3ccccc13)O2)c1ccccc1", "note": "(configuration not stated)", "activity change, negative = inhibition": "inconclusive: -0.31%"}, {"smiles": "COc1ccc2[nH]c(=O)c(CN(Cc3nnnn3Cc3ccc(F)cc3)CC3CCCO3)cc2c1", "note": "(configuration not stated)", "activity change, negative = inhibition": "inactive: -4.33%"}, {"smiles": "O=C(NCc1ccco1)c1ccc(-c2csnn2)cc1", "activity change, negative = inhibition": "inconclusive: -26.2%"}, {"smiles": "CC(Sc1nc(=O)cc(N)n1CCc1ccccc1)C(=O)NCc1ccccc1", "note": "(configuration not stated)", "activity change, negative = inhibition": "inconclusive: 6.27%"}, {"smiles": "COc1ccc(OC)c(NC(=O)C2COc3ccccc3O2)c1", "note": "(configuration not stated)", "activity change, negative = inhibition": "inactive: 4.05%"}, {"smiles": "O=C(Nc1cc([N+](=O)[O-])ccc1F)c1cccs1", "Potency": "inconclusive: 29.1 µM [falling, single point]"}, {"smiles": "O=C(c1cc(-c2cccs2)nc2ccccc12)N1CCN(c2ccccc2O)CC1", "activity change, negative = inhibition": "inconclusive: -4.76%"}, {"smiles": "CCN1/C(=C2\\SC(=S)N(Cc3ccccc3)C2=O)Sc2ccccc21", "activity change, negative = inhibition": "inactive: 0.622%"}, {"smiles": "COC(=O)C(=C/C=C/c1cccnc1)C(=O)OC", "Potency": "inconclusive: 6.31 µM [falling, single point]"}, {"smiles": "Cc1ccc(-c2c(C(=O)N/N=C/c3ccco3)nnn2-c2nonc2N)cc1", "Potency": "inconclusive: 17.8 µM [rising, partial curve, poor fit]"}, {"smiles": "CC(=O)Nc1ccc(S(=O)(=O)NCC(=O)OCc2ccccc2)cc1", "activity change, negative = inhibition": "inconclusive: 7.06%"}, {"smiles": "O=C(Nc1cccc(S(=O)(=O)NC2=NCCCCC2)c1)c1cc(-c2ccccc2Cl)nc2ccccc12", "activity change, negative = inhibition": "inconclusive: 5.24%"}, {"smiles": "COc1cccc(NC(=O)CN2C=NS(=O)(=O)c3ccccc32)c1", "Potency": "inconclusive: 17.8 µM [falling, partial curve, poor fit]"}, {"smiles": "Oc1ccccc1CNc1cnc2ccccc2c1", "Potency": "inconclusive: 29.1 µM [falling, single point]"}, {"smiles": "COc1ccc(S(=O)(=O)Nc2ccccc2C(=O)NCc2ccco2)cc1", "activity change, negative = inhibition": "inactive: -11.4%"}, {"smiles": "COc1cccc(/C=C(\\C)C(=O)c2c(C)cc(C)[nH]c2=O)c1OC", "activity change, negative = inhibition": "inconclusive: -0.629%"}, {"smiles": "Cc1ccc(N(C)C(=O)N2CCN(S(=O)(=O)c3ccc(C)c(C)c3)CC2)cc1", "activity change, negative = inhibition": "inconclusive: 6.35%"}, {"smiles": "O=C(Nc1cccc(-c2ccc(N3CCCCC3)nn2)c1)c1ccc(Br)o1", "Potency": "inconclusive: 25.9 µM [falling, single point]"}, {"smiles": "CCS(=O)(=O)NCCc1sc2nc(-c3ccc(OC)cc3)nn2c1C", "activity change, negative = inhibition": "inconclusive: 17.1%"}, {"smiles": "Cc1ccccc1-c1nsc(SCC(=O)c2ccc(Cl)cc2)n1", "activity change, negative = inhibition": "inconclusive: 24.3%"}, {"smiles": "C[C@]12CCC(=O)C=C1CC[C@@H]1[C@@H]2CC[C@@]2(C)[C@H]1CC[C@]2(O)C(=O)CO", "activity change, negative = inhibition": "inconclusive: -13.5%"}, {"smiles": "COc1cccc(C(=O)/C=C/Nc2cccc(O)c2)c1", "Potency": "inconclusive: 23.1 µM [falling, partial curve]"}, {"smiles": "O=C(CNS(=O)(=O)c1ccc(Br)s1)N1CCN(c2ccc(F)cc2)CC1", "activity change, negative = inhibition": "inactive: 1.37%"}, {"smiles": "CCOc1ccc(C(=O)Nc2cc(-c3nc4ccccc4[nH]3)ccc2C)cc1[N+](=O)[O-]", "Potency": "inconclusive: 2.82 µM [falling, full curve, poor fit]"}, {"smiles": "CCOC(=O)c1sc(N2C(=O)C(O)=C(C(=O)c3ccco3)C2c2ccc(C)o2)nc1C", "note": "(configuration not stated)", "activity change, negative = inhibition": "inconclusive: -9.77%"}, {"smiles": "Cc1sc2ncnc(N/N=C/c3ccc(O)cc3)c2c1C", "Potency": "inconclusive: 11.6 µM [falling, partial curve, poor fit]"}, {"smiles": "CCOC(=O)Cc1nn(CC)c(=O)c2ccccc12", "activity change, negative = inhibition": "inactive: -8.1%"}, {"smiles": "O=C1NC(=O)/C(=C\\c2ccc(Br)o2)S1", "activity change, negative = inhibition": "inconclusive: 12.7%"}, {"smiles": "O=C(CNS(=O)(=O)c1c(Cl)cccc1Cl)OCc1csc(-c2ccccc2)n1", "activity change, negative = inhibition": "inconclusive: 4.17%"}, {"smiles": "Cc1ccccc1NC(=S)N/N=C/C(C)c1ccccc1", "note": "(configuration not stated)", "Potency": "inconclusive: 22.4 µM [falling, single point]"}, {"smiles": "O=C(CSC(=S)N1CCCCC1)Nc1ncc2c(n1)CC(c1ccco1)CC2=O", "note": "(configuration not stated)", "activity change, negative = inhibition": "inconclusive: 3.61%"}, {"smiles": "COc1ccc(C(C(=O)NCC2CCCO2)N(C(=O)CNC(=O)c2cccs2)c2ccc(C(C)=O)cc2)cc1OC", "note": "(configuration not stated)", "activity change, negative = inhibition": "inconclusive: -0.573%"}, {"smiles": "CC(=C/c1ccccc1)/C=N/NC(=O)c1ccccn1", "Potency": "inconclusive: 31.6 µM [rising, single point]"}, {"smiles": "N/C(=N\\OCc1ccc([N+](=O)[O-])cc1)c1ccccn1", "Potency": "inconclusive: 4.47 µM [falling, partial curve]"}, {"smiles": "O=C(NCc1ccc(Cl)cc1)c1cc(=O)[nH]c2ccccc12", "activity change, negative = inhibition": "inconclusive: 10.5%"}, {"smiles": "Cc1cccc(NC(=O)CCOc2ccccc2)c1", "Potency": "inconclusive: 6.51 µM [rising, single point]"}, {"smiles": "COc1ccc(C(=O)Nc2sc3c(c2C#N)CCN(C(C)=O)C3)cc1", "Potency": "inconclusive: 35.5 µM [falling, single point]"}, {"smiles": "CC(C)[N+]1(C)[C@@H]2CC[C@@H]1CC(OC(=O)C(CO)c1ccccc1)C2", "note": "(some centres not stated)", "activity change, negative = inhibition": "inconclusive: -4.38%"}, {"smiles": "C=CCN1C(=O)N(c2ccc(F)cc2)C(=O)C1CC(=O)Nc1ccc(Cl)cc1", "note": "(configuration not stated)", "Potency": "inconclusive: 11.2 µM [falling, partial curve, poor fit]"}, {"smiles": "COc1cccc(/C=C/C(=O)c2ccc3c(c2)OCCO3)c1OC", "Potency": "inconclusive: 22.4 µM [falling, single point]"}, {"smiles": "CC(C)c1cc(C(=O)N2CCCC(C(=O)c3ccc4ccccc4c3)C2)on1", "note": "(configuration not stated)", "activity change, negative = inhibition": "inconclusive: 12.1%"}, {"smiles": "O=C(Nc1ccccn1)C1CCCN(c2ncnc3c2nc2n3CCCCC2)C1", "note": "(configuration not stated)", "activity change, negative = inhibition": "inactive: 7.48%"}, {"smiles": "COc1ccc(C2C(C#N)=C(N)Oc3cc(C)[nH]c(=O)c32)c(OC)c1OC", "note": "(configuration not stated)", "Potency": "inconclusive: 1.3 µM [rising, full curve]"}, {"smiles": "Cc1cc(C(=O)NNc2ccc(C)c(C)c2)no1", "activity change, negative = inhibition": "inconclusive: -29.7%"}, {"smiles": "CCC1(c2ccccc2)C(=O)NCNC1=O", "Potency": "inconclusive: 0.794 µM [falling, partial curve, poor fit]"}, {"smiles": "Nc1nnc(SCC(=O)OCC(=O)c2ccccc2Br)s1", "activity change, negative = inhibition": "inconclusive: 12.4%"}]}]}
